Binding data for two substances are collected here from publication PMC9645763.

Protein sequences, listed by entry. Tags and fused reporters are not part of them. Lines headed by an entry give the natural chain unless they say otherwise; changes in a name come on top.
UniProt Q61188: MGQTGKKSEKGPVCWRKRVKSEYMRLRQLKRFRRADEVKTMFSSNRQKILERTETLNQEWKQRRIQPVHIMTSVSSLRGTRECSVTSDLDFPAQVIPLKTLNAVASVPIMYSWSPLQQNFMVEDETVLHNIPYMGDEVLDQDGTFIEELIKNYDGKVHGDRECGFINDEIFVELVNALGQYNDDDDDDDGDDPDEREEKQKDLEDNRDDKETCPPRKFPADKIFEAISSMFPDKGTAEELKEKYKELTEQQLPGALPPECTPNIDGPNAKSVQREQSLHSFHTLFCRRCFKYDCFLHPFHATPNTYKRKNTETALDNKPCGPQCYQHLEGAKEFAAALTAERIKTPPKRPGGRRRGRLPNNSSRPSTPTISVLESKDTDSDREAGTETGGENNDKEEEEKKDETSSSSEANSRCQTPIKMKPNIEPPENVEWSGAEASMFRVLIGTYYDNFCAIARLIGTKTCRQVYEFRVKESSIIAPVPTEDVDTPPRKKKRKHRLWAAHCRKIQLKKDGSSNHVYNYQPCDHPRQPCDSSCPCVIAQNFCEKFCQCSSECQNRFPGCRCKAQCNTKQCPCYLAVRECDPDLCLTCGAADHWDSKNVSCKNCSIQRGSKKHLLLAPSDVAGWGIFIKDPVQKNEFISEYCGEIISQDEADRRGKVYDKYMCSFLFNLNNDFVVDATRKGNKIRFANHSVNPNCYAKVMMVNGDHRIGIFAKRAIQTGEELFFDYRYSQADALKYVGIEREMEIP
UniProt Q15022: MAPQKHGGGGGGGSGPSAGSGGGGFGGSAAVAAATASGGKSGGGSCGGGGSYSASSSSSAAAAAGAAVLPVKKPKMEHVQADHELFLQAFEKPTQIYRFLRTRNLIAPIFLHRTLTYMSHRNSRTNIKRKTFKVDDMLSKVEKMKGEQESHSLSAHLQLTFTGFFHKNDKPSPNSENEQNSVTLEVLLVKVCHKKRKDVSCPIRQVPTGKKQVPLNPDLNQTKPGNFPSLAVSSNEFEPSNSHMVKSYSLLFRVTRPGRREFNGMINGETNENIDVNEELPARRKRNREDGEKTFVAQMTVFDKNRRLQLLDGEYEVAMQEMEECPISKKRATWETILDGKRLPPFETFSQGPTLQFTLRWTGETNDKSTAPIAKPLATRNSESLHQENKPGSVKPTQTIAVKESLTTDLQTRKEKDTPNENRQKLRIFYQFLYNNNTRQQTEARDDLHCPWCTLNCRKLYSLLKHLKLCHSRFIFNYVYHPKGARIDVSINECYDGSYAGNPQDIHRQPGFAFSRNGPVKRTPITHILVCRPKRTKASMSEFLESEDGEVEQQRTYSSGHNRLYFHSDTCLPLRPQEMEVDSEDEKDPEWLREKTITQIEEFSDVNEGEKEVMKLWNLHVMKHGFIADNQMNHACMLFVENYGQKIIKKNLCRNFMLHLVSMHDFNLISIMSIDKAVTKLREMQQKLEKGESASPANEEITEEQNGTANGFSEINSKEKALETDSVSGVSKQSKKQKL

The assay addresses EZH2 of mESCs (mouse (endogenous in mESCs)) (UniProt Q61188). Put plainly: co-IP; anti-EZH2 antibody captures re-expressed WT and mutant SUZ12 from mESCs; bound and unbound fractions blotted for SUZ12 (prey) and EZH2 (bait); rabbit IgG as negative control.

Results are given in words; binding and its absence hold for the method and conditions named. Binding seen in cells or lysates may run through a third protein. Some entries that bind do so weakly or less than the wild type.

As to “3×FLAG-tagged human SUZ12 S583A (from UniProt Q15022 1-739)”, the binding entry is “binds”.
The same measure for “3×FLAG-tagged human SUZ12 WT (from UniProt Q15022 1-739)”: “binds”.
